Reference: paper PMC8844723
No constants are given. Whether binding was seen depends on the method and setting. Binding seen in cells or lysates may run through a third protein. A result given as binding can be weak or reduced; the word gives no strength. Sequences can lack the tags named with a protein.

Target: T1, human TMEM106A, myc-tagged (human) (UniProt Q96A25)
T1 sequence: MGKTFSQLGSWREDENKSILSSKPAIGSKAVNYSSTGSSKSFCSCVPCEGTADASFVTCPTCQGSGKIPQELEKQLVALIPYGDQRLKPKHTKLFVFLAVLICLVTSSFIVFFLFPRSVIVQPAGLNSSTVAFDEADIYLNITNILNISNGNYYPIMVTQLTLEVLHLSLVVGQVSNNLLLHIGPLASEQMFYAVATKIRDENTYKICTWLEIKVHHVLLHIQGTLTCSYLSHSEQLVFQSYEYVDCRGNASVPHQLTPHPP
Experiment: co-IP

Substance: HIV-1 Env gp160, C-terminally FLAG-tagged
- binding: binds

Substance: HIV-1 gp120, C-terminally FLAG-tagged (domain or fragment)
- binding: binds
